Article PMC3386982
These are yes or no findings as the source states them, for the method shown. In cells and extracts the contact can be indirect. Some binding calls cover weakened binding; strength is not graded here.

By UniProt entry, the sequences of proteins in these tests, tags left out. Residues count along the entry.
UniProt P08631, residues 144-241: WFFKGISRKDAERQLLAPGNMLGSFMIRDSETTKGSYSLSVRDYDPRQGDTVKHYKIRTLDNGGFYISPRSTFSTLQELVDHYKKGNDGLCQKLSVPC
UniProt P40198, residues 35-252: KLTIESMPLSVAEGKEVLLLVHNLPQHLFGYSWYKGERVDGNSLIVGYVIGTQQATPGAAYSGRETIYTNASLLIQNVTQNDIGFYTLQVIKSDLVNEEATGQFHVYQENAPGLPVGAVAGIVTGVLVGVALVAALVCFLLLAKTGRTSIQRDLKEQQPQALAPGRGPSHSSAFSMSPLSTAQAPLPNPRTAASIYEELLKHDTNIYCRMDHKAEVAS

Target: GST-tagged SH2 domain of Hck (UniProt P08631)
Assay: pull-down; GST or GST-tagged SH2 domains immobilized on glutathione-sepharose beads; lysates of 293 cells transfected with tagged CEACAM together with or without v-Src; precipitates analysed by Western blotting; only the target purified

“GFP-tagged CEACAM3, tyrosine phosphorylated (co-expressed with v-Src) (from UniProt P40198 35-252) (receptor)” was tested, and the binding was “binds”.
